Measurements: article PMC6199744, “Development of Chemical Proteomics for the Folateome and Analysis of the Kinetoplastid Folateome” (ACS Infectious Diseases, 2018)
Read-outs that look alike come from different tables or passages of the source. The source gives many values for each of these; only a part stands here.

Test system: T. brucei lysate proteins
Type: binding, Trypanosoma brucei

With `CCCCCCOc1cccc(Cc2cnc(N)nc2N)c1` [compound 2] the fold change (protein TB09.211.4760 METACASPASE 5, PUTATIVE, vehicle control = 1) was 0.91, the fold change (protein TB427TMP.01.1090 HY[…], CONSERVED, vehicle control = 1) was 1.29 and the fold change (protein TB427TMP.01.2460 HY[…], CONSERVED, vehicle control = 1) was 0.89. For the same molecule, the fold change (protein TB427TMP.01.6180 HY[…], CONSERVED, vehicle control = 1) was 0.98, the fold change (protein TB427TMP.02.0030 DYNEIN HEAVY CHAIN, PUTATIVE, vehicle control = 1) was 0.93 and the fold change (protein TB427TMP.02.2410 CLATHRIN COAT ASSEMBLY PROTEIN, PUTATIVE, vehicle control = 1) was 0.93. For the same molecule, the fold change (protein TB427TMP.02.4300 HY[…], CONSERVED, vehicle control = 1) was 0.94, the fold change (protein TB427TMP.02.5280 GLYCEROL-3-PHOSPHATE DEHYDROGENASE (FAD-DEPENDENT), MITOCHONDRIAL, vehicle control = 1) was 1.45 and the fold change (protein TB427TMP.211.2150 POLYADENYLATE-BINDING PROTEIN 2 (PABP2), PUTATIVE, vehicle control = 1) was 1.1. For the same molecule, the fold change (protein TB427TMP.211.4550 60S RIBOSOMAL PROTEIN L12, PUTATIVE, vehicle control = 1) was 1.4, the fold change (protein TB427TMP.211.4810 HY[…], CONSERVED, vehicle control = 1) was 0.93 and the fold change (protein TB427TMP.47.0011 HY[…], CONSERVED, vehicle control = 1) was 0.93. For the same molecule, the fold change (protein TB427.03.4260 HY[…], CONSERVED, vehicle control = 1) was 1.1, the fold change (protein TB427.04.2060 HY[…], CONSERVED, vehicle control = 1) was 0.88 and the fold change (protein TB427.04.2340 HY[…], CONSERVED, vehicle control = 1) was 0.99. It also gave a fold change (protein TB427.04.3740 FLAGELLAR […] PROTEIN, vehicle control = 1) of 0.99, a fold change (protein TB427.04.5200 NUCLEOPORIN (NUP54/57), PUTATIVE, vehicle control = 1) of 1.29 and a fold change (protein TB427.04.560 DYNEIN HEAVY CHAIN, PUTATIVE, vehicle control = 1) of 1. The fold change (protein TB427.06.3670 PAR[…] COMPONENT, PUTATIVE, vehicle control = 1) was 0.99, the fold change (protein TB427.07.2770 HY[…], CONSERVED, vehicle control = 1) was 1.1 and the fold change (protein TB427.07.3160 DYNEIN HEAVY CHAIN, CYTOSOLIC, PUTATIVE, vehicle control = 1) was 0.91. The fold change (protein TB427.08.1420 ACYL-COA DEHYDROGENASE, MIT[…], PUTATIVE, vehicle control = 1) was 0.91, the fold change (protein TB427.08.1950 HY[…], CONSERVED, vehicle control = 1) was 0.87 and the fold change (protein TB427.08.4540 HY[…], CONSERVED, vehicle control = 1) was 0.96. For the same molecule, the fold change (protein TB427.10.14180 PROTEIN TRANSPORT PROTEIN SEC13, PUTATIVE, vehicle control = 1) was 0.95, the fold change (protein TB427.10.1450 HY[…], CONSERVED, vehicle control = 1) was 0.82 and the fold change (protein TB427.10.14860 HY[…], CONSERVED, vehicle control = 1) was 0.98. For the same molecule, the fold change (protein TB427.10.14930 HY[…], CONSERVED, vehicle control = 1) was 0.88, the fold change (protein TB427.10.15360 HY[…], CONSERVED, vehicle control = 1) was 1 and the fold change (protein TB427.10.4600 HY[…], CONSERVED, vehicle control = 1) was 0.51. For the same molecule, the fold change (protein TB927.10.12740 HY[…], CONSERVED,ZINC FINGER PROTEIN FAMILY MEMEBER, PUTATIVE, vehicle control = 1) was 1.1, the fold change (protein TB927.10.14170 AQUAPORIN 9, PUTATIVE, vehicle control = 1) was 0.94 and the fold change (protein TB927.10.14820 MIT[…] PROTEIN, PUTATIVE, vehicle control = 1) was 1.43. The fold change (protein TB927.10.6050 CLATHRIN HEAVY CHAIN, vehicle control = 1) was 0.85, the fold change (protein TB927.2.1780 UDP-GLCNAC:PI A1-6 GLCNAC-TRANSFERASE, vehicle control = 1) was 0.95 and the fold change (protein TB927.3.5490 FLAGELLAR TRANSPORT PROTEIN, PUTATIVE, vehicle control = 1) was 1.2. It also gave a fold change (protein TB927.6.2360 ADENOSINE KINASE, PUTATIVE, vehicle control = 1) of 0.98, a fold change (protein TB927.6.4460 S-ADENOSYLMETHIONINE DECARBOXYLASE, vehicle control = 1) of 0.91 and a fold change (protein TB927.7.7040 METHYLTHIOADENOSINE PHOSPHORYLASE, PUTATIVE, vehicle control = 1) of 0.77. For the same molecule, the fold change (vs vehicle control, protein HA-UBIQUITIN (CZB00000046.1)) was 0.79, the fold change (vs vehicle control, protein TB09.160.2360 POLY(A) EXPORT PROTEIN, PUTATIVE) was 0.97 and the fold change (vs vehicle control, protein TB09.211.0630 ACTIN A) was 1. The fold change (vs vehicle control, protein TB11.01.3180 GUANINE NUCLEOTIDE-BINDING PROTEIN BETA SUBUNIT-LIKE PROTEIN) was 0.96, the fold change (vs vehicle control, protein TB11.01.8740 PROTEIN PHOSPHATASE 4, PUTATIVE) was 1.1 and the fold change (vs vehicle control, protein TB427TMP.01.5000 HY[…], CONSERVED) was 0.97. The fold change (vs vehicle control, protein TB427TMP.01.8470 DIHYDROLIPOYL DEHYDROGENASE) was 0.72, the fold change (vs vehicle control, protein TB427TMP.160.2220 HY[…], CONSERVED) was 1 and the fold change (vs vehicle control, protein TB427TMP.160.4760 HY[…]) was 0.89. The fold change (vs vehicle control, protein TB427TMP.211.4170 HY[…], CONSERVED) was 0.94, the fold change (vs vehicle control, protein TB427.01.120 RETRO[…] SPOT (RHS) PROTEIN, PUTATIVE) was 1.1 and the fold change (vs vehicle control, protein TB427.02.4130 ENOYL-COA HYDRATASE/ENOYL-COA ISOMERASE/3-HYDROXYACYL-COA DEHYDROGENASE, PUTATIVE) was 1.2. It also gave a fold change (vs vehicle control, protein TB427.02.5850 SMALL NUCLEAR RIBONUCLEOPROTEIN SMD2) of 1.2, a fold change (vs vehicle control, protein TB427.03.1210 PROTEIN TRANSPORT PROTEIN SEC24) of 1 and a fold change (vs vehicle control, protein TB427.03.1790 PYRUVATE DEHYDROGENASE E1 BETA SUBUNIT, PUTATIVE) of 0.85. For the same molecule, the fold change (vs vehicle control, protein TB427.04.1660 MIT[…] PROTEIN, PUTATIVE) was 0.94, the fold change (vs vehicle control, protein TB427.04.4300 HY[…], CONSERVED) was 0.92 and the fold change (vs vehicle control, protein TB427.06.1500 ALKYL-DIHYDR[…] SYNTHASE) was 0.99. For the same molecule, the fold change (vs vehicle control, protein TB427.06.2230 HY[…], CONSERVED) was 1.1, the fold change (vs vehicle control, protein TB427.06.2250 RAC SERINE-THREONINE KINASE, PUTATIVE) was 0.91 and the fold change (vs vehicle control, protein TB427.06.3050 ALDEHYDE DEH[…], PUTATIVE) was 0.99. For the same molecule, the fold change (vs vehicle control, protein TB427.06.3500 ENDOSOMAL T[…] RME-8, PUTATIVE) was 0.91, the fold change (vs vehicle control, protein TB427.06.4440 HY[…], CONSERVED) was 0.96 and the fold change (vs vehicle control, protein TB427.06.4480 VALYL-TRNA SYNTHETASE, PUTATIVE) was 1.1. It also gave a fold change (vs vehicle control, protein TB427.07.4570 INOSINE-GUANINE […]) of 0.96, a fold change (vs vehicle control, protein TB427.10.14950 RNA BINDING PROTEIN, PUTATIVE) of 0.93 and a fold change (vs vehicle control, protein TB927.10.12700 PYRUVATE DEHYDROGENASE E1 ALPHA SUBUNIT, PUTATIVE) of 0.84. It also gave a fold change (vs vehicle control, protein TB927.10.8160 HY[…], CONSERVED) of 0.88, a fold change (vs vehicle control, protein TB927.4.3820 HY[…], CONSERVED) of 0.99 and a fold change (vs vehicle control, protein TB927.6.1020 CYSTEINE PEPTIDASE PRECURSOR) of 1.
